Test results from patent US20250059271A1 (BARRELMAN BIOSCIENCES, published 2025).
No constants are given. Whether binding was seen depends on the method and setting. Some results given as binding are weak or reduced against the parent protein; the word gives no strength.

T1: dProgastrin-SUMO protein (dog, UniProt P01353 22-104)
T1 construct: Unknown whether the listing entry 103 holds the tag; also called dProg-Sumo protein; dog progastrin His-SUMO protein; not shown: N-terminal His-SUMO tag
T1 sequence: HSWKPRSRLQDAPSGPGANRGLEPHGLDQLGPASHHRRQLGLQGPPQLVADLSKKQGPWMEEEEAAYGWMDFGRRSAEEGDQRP

T2: canine recombinant progastrin (canine) (UniProt P01353)
T2 sequence (looked up): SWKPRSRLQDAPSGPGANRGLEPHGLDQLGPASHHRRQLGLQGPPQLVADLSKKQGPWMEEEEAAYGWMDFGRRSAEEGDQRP


Legend:
[1] = biological target: T1, dProgastrin-SUMO protein; assay: sandwich ELISA 2
[2] = biological target: T1, dProgastrin-SUMO protein; assay: sandwich ELISA 3
[3] = biological target: T1, dProgastrin-SUMO protein; assay: ELISA on dProgastrin-Sumo
[4] = biological target: T2, canine recombinant progastrin (canine); assay: sandwich ELISA; the sheet prints coating Ab 4 µg/mL 2-A3, detector Ab 0.5 µg/mL 1-H2, streptavidin-HRP 0.15 µg/mL (the text, paragraph 109, gives 1-H2 as coat and biotinylated 2-A3 as detector); progastrin concentration varied
[5] = biological target: T2, canine recombinant progastrin (canine); assay: sandwich ELISA; the sheet prints coating Ab 4 µg/mL 2-A3, detector Ab 0.5 µg/mL 1-H2, streptavidin-HRP 0.15 µg/mL (the text, paragraph 112, gives 1-H2 as coat and biotinylated 2-A3 as detector); sample concentration varied
[6] = biological target: T2, canine recombinant progastrin (canine); assay: sandwich ELISA, coat 1-H2, detect biotinylated 2-A3
[7] = biological target: T2, canine recombinant progastrin (canine); assay: sandwich ELISA
[8] = biological target: T1, dProgastrin-SUMO protein; assay: sandwich ELISA 1

| binding [1] | binding [2] | binding [3] | binding [4] | binding [5] | binding [6] | binding [7] | binding [8] | Binder |
| --- | --- | --- | --- | --- | --- | --- | --- | --- |
| binds | binds | binds |  |  |  |  |  | dProg-1-D6 mAb (antibody, V domains shown) VH: QSLEESEGGLFKPTDTLTLTCTVSGFSLISYGVSWVRQAPGKGLEWIGGIWPGASTYYASWAKSRSTITRNTNLNTVTLKMTSLTAADTATYFCARNSVGWLWGPGTLVTVSS VL: AQVLTQSASPVSAAVGGTVTINCQASQSIYKNNYLSWYHQKPGQPPKLLIYDASDLASGVPSRFSGSGSGTQFTLTISGVQCEDAATYYCQGEFSCSSADCFAFGGGTEVVVKG |
|  |  |  | binds | binds | binds | binds |  | dProg-2-A3 mAb (antibody, V domains shown, Recombinant rabbit monoclonal antibody; same entries as dProg-2-F4; Biotinylated when used for detection; also called dprogastrin-2_A3 mAb) VH: QSVEESRGGLFKPTEPLTLTCTASGFTISSYHMGWVRQTPGKQLEWIGWIGSSGATYYASWATSRSTITRNTNDNTVTLKMTSLTAADTATYFCARSGWGSFDIWGPGALVTVSS VL: AQVLTQTPASVSAAVGGTVTINCQSSQSVYNNDRLAWFQQKPGQPPKLLIYLASTLASGVPSRFKGSGSGTQFTLTIGEVQCDDAATYYCQSYYNGYIFGFGGGTEVVVKG |
| binds | binds | binds |  |  |  |  | binds | dProg-2-F4 mAb (antibody, V domains shown, Recombinant rabbit monoclonal antibody; same entries as dProg-2-A3; also called dprogastrin-2_F4) VH: QSVEESRGGLFKPTEPLTLTCTASGFTISSYHMGWVRQTPGKQLEWIGWIGSSGATYYASWATSRSTITRNTNDNTVTLKMTSLTAADTATYFCARSGWGSFDIWGPGALVTVSS VL: AQVLTQTPASVSAAVGGTVTINCQSSQSVYNNDRLAWFQQKPGQPPKLLIYLASTLASGVPSRFKGSGSGTQFTLTIGEVQCDDAATYYCQSYYNGYIFGFGGGTEVVVKG |
